Experimental data published in publication PMC3419649.
Results are given in words; binding and its absence hold for the method and conditions named. In cells and extracts the contact can be indirect. Some results given as binding are weak or reduced against the parent protein; the word gives no strength.

The chains behind the UniProt entries cited, without tags or fusion partners.
UniProt P49950: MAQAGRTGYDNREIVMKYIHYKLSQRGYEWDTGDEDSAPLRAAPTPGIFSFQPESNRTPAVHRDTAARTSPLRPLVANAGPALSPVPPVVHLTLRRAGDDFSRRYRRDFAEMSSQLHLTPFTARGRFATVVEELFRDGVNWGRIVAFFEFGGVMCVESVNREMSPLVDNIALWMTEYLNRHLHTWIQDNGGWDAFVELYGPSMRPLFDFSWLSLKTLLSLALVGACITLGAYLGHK
UniProt Q63690: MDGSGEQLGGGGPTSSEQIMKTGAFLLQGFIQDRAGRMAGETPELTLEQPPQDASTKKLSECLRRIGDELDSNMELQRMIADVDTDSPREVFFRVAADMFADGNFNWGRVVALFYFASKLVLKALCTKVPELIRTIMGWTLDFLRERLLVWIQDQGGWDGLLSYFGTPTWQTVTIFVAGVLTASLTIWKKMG

Experiments:
[1] = target: Bcl2 (rat (endogenous in PC12)) (UniProt P49950); assay: co-IP; endogenous proteins in PC12 protein extracts (M-PER) taken 0, 2, 4 and 8 hrs after 30 nM H2O2; Diva, Bcl2 or Bax antibody overnight at 4°C, Protein G Plus/Protein A agarose, 5 washes (10 mM Tris pH 7.4, 150 mM NaCl, 1% Triton X-100, EDTA, EGTA); western blot
[2] = target: Bax (rat (endogenous in PC12)) (UniProt Q63690); assay: as above

binding [1]: binds
binding [2]: binds
B1: Diva (protein, UniProt Q99M66 1-185)
chain: MGDPLQDRTRRLLTDYILFCARAPNTPEPLPTSVEAALLRSVTSQIQQEHQDLFNSFRDYQGNRLELVTQMADELLSNDQEFNWGRLVMLLAFVGTLMNQDRTVKRRRDQRNRLLLERDCYLIVSLLYNRLTGRHRSWLEAHGGWDGFCQFFKNPLPPGFWRRLLIRAILSCFFATAIFYIWKCL
